Assay: pH control in 6 L vessel with DuoClear 15 electrolytic chlorinator

SMILES: [Cl-].[Cl-].[Zn+2] [zinc chloride]
- initial pH after addition and mixing (6.28 g one-time batch addition to 6 L, mixed overnight, pH reduced from 7.9): 6.0
- increase in pH (Example 1: 6.28 g batch addition, 60 minutes of chlorinator operation): approximately 1.25 pH units
- net increase in pH (Example 2: 12.2 mM aqueous solution at 10.5 ml/min, 60 minutes of operation): about 0.8 pH units
- pH increase (Example 3: 25 mM solution at 10.2 ml/min, 60 minutes of operation): about 0.2 pH units

— patent US20090294381A1, “METHODS FOR CONTROLLING PH IN WATER SANITIZED BY CHEMICAL OR ELECTROLYTIC CHLORINATION” (ZODIAC POOL CARE, INC., priority 2005, published 2009)
